Values from PubChem BioAssay AID1117269 (University of Michigan, 2014).

- Assay: 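Kinases whose silencing alters a TGF-beta responsive luciferase reporter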 (primary screen)
- System: human A549 lung cancer and 1833 breast cancer (MDA-MB-231-derived) cell lines carrying a stable BTR luciferase reporter
- Reagent: siRNA pool against human genes
- Time to read-out: 72 h after transfection, then 1 h TGF-beta before the read
- Treatment: TGF-beta 10 ng/mL added one hour before luciferin and read-out
- Measured: 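BTR reporter bioluminescence as fold change relative to non-targeting siRNA, averaging triplicates per line; knockdown for 72 h, then TGF-beta at 10 ng/mL 1 h prior to reading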
- Direction: fold over scrambled siRNA, A549 and fold over scrambled siRNA, 1833: higher = more reporter light, weaker TGF-beta receptor signalling
- Active means: 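Active if a hit in A549 or 1833; a line's hit exceeds an upper quartile-based cutoff on mean log fold values, applied per plate and across the whole screen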
- Calls: active = hit in at least one line; inactive = hit in neither line
In all, the deposit lists 714 reagents; shown is an unselected part. In the full data, 49 (6.9%) got an active call. 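Active means a hit in at least one line; per-line hit columns show which; some siRNA pools appear more than once.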 No sequences are given here. The record does not give: the amount of reagent.

For GK2 (GeneID 2712), what does the deposit list?
fold over scrambled siRNA, A549: 4.67; fold over scrambled siRNA, 1833: 9.76; hit in A549: not a hit in A549; hit in 1833: not a hit in 1833; activity call: inactive

What is on record for TGFBR2 (GeneID 7048)?
fold over scrambled siRNA, A549: 0.793; fold over scrambled siRNA, 1833: 1.59; hit in A549: not a hit in A549; hit in 1833: not a hit in 1833; activity call: inactive

What did the screen give for EPHB1 (GeneID 2047)?
fold over scrambled siRNA, A549: 1.57; fold over scrambled siRNA, 1833: 2.11; hit in A549: not a hit in A549; hit in 1833: not a hit in 1833; activity call: inactive

How did the screen score MAP2K6 (GeneID 5608)?
fold over scrambled siRNA, A549: 3.05; fold over scrambled siRNA, 1833: 5.52; hit in A549: not a hit in A549; hit in 1833: not a hit in 1833; activity call: inactive

What did the screen give for AMHR2 (GeneID 269)?
fold over scrambled siRNA, A549: 1.29; fold over scrambled siRNA, 1833: 2.14; hit in A549: not a hit in A549; hit in 1833: not a hit in 1833; activity call: inactive

For AK3 (GeneID 50808), what was measured?
fold over scrambled siRNA, A549: 2.1; fold over scrambled siRNA, 1833: 2.67; hit in A549: not a hit in A549; hit in 1833: not a hit in 1833; activity call: inactive

What is on record for MAP3K6 (GeneID 9064)?
fold over scrambled siRNA, A549: 2.75; fold over scrambled siRNA, 1833: 0.519; hit in A549: not a hit in A549; hit in 1833: not a hit in 1833; activity call: inactive

What is on record for CAMK4 (GeneID 814)?
fold over scrambled siRNA, A549: 3.65; fold over scrambled siRNA, 1833: 3.22; hit in A549: not a hit in A549; hit in 1833: not a hit in 1833; activity call: inactive

3 entries from above, set out differently.
{"target":"AK3 (GeneID 50808)","fold over scrambled siRNA, A549":2.1,"fold over scrambled siRNA, 1833":2.67,"hit in A549":"not a hit in A549","hit in 1833":"not a hit in 1833","activity call":"inactive"}
{"target":"MAP3K6 (GeneID 9064)","fold over scrambled siRNA, A549":2.75,"fold over scrambled siRNA, 1833":0.519,"hit in A549":"not a hit in A549","hit in 1833":"not a hit in 1833","activity call":"inactive"}
{"target":"CAMK4 (GeneID 814)","fold over scrambled siRNA, A549":3.65,"fold over scrambled siRNA, 1833":3.22,"hit in A549":"not a hit in A549","hit in 1833":"not a hit in 1833","activity call":"inactive"}

The list goes on:
What did the screen give for DCLK3 (GeneID 85443)?
fold over scrambled siRNA, A549: 2.81; fold over scrambled siRNA, 1833: 6.14; hit in A549: not a hit in A549; hit in 1833: not a hit in 1833; activity call: inactive

With MAST3 (GeneID 23031), what does the deposit list?
fold over scrambled siRNA, A549: 3.21; fold over scrambled siRNA, 1833: 2.05; hit in A549: not a hit in A549; hit in 1833: not a hit in 1833; activity call: inactive

With PANK4 (GeneID 55229), what was measured?
fold over scrambled siRNA, A549: 1.33; fold over scrambled siRNA, 1833: 2.24; hit in A549: not a hit in A549; hit in 1833: not a hit in 1833; activity call: inactive

For HK2 (GeneID 3099), how do the results read?
fold over scrambled siRNA, A549: 1.1; fold over scrambled siRNA, 1833: 5.76; hit in A549: not a hit in A549; hit in 1833: not a hit in 1833; activity call: inactive

What did the screen give for PRKCE (GeneID 5581)?
fold over scrambled siRNA, A549: 1.6; fold over scrambled siRNA, 1833: 2.53; hit in A549: not a hit in A549; hit in 1833: not a hit in 1833; activity call: inactive

For CAMK2A (GeneID 815), what was measured?
fold over scrambled siRNA, A549: 1.1; fold over scrambled siRNA, 1833: 5.05; hit in A549: not a hit in A549; hit in 1833: not a hit in 1833; activity call: inactive

Which result is listed for HUS1 (GeneID 3364)?
fold over scrambled siRNA, A549: 1.29; fold over scrambled siRNA, 1833: 2.14; hit in A549: not a hit in A549; hit in 1833: not a hit in 1833; activity call: inactive

With AK1 (GeneID 203), what does the deposit list?
fold over scrambled siRNA, A549: 1.63; fold over scrambled siRNA, 1833: 1.13; hit in A549: not a hit in A549; hit in 1833: not a hit in 1833; activity call: inactive

What is on record for CDC42BPG (GeneID 55561)?
fold over scrambled siRNA, A549: 2.72; fold over scrambled siRNA, 1833: 3.14; hit in A549: not a hit in A549; hit in 1833: not a hit in 1833; activity call: inactive

For SCYL3 (GeneID 57147), what was measured?
fold over scrambled siRNA, A549: 0.714; fold over scrambled siRNA, 1833: 1.25; hit in A549: not a hit in A549; hit in 1833: not a hit in 1833; activity call: inactive

What did the screen give for PCK2 (GeneID 5106)?
fold over scrambled siRNA, A549: 1.62; fold over scrambled siRNA, 1833: 2.1; hit in A549: not a hit in A549; hit in 1833: not a hit in 1833; activity call: inactive

What did the screen give for PKLR (GeneID 5313)?
fold over scrambled siRNA, A549: 5.39; fold over scrambled siRNA, 1833: 1.3; hit in A549: hit in A549; hit in 1833: not a hit in 1833

With PLK3 (GeneID 1263), how do the results read?
fold over scrambled siRNA, A549: 7.9; fold over scrambled siRNA, 1833: 3.33; hit in A549: hit in A549; hit in 1833: not a hit in 1833; activity call: active
